Laboratory results published in article doi:10.1101/2022.09.16.508288.
Results are given in words; binding and its absence hold for the method and conditions named. For part of these data: In cells and extracts the contact can be indirect. Some entries that bind do so weakly or less than the wild type. Blank lines part the entries; values can stand above or below the binder they belong to.

The chains behind the UniProt entries cited, without tags or fusion partners.
UniProt Q5DTM8: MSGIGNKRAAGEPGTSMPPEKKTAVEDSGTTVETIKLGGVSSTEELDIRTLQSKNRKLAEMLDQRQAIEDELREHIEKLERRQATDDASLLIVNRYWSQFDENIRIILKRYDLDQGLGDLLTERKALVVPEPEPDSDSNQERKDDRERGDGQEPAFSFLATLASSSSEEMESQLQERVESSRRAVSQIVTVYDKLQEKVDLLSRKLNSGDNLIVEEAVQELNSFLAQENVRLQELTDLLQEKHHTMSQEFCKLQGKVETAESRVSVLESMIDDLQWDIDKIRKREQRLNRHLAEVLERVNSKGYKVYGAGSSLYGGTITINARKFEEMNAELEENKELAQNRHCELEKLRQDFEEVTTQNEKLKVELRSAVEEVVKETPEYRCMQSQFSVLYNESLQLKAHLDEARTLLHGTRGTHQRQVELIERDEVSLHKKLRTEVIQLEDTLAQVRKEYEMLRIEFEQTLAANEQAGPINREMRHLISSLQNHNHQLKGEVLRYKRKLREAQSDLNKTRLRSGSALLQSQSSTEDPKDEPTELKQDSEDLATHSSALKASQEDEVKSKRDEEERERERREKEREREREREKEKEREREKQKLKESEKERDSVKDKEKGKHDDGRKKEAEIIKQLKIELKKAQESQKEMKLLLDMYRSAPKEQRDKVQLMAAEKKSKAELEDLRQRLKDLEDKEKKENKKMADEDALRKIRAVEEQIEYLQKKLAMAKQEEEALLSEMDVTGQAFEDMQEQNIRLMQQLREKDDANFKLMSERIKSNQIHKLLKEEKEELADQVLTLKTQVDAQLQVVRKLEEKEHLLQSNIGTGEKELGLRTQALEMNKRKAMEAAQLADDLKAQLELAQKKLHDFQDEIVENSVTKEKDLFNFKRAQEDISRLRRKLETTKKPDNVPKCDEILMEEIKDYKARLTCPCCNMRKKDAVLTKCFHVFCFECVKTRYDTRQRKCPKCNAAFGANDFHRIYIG

Experiments:
GST-Rnf20 fusion protein = GST-Rnf20 fusion protein (UniProt Q5DTM8); assay: pull-down
[1] = molecular target: Rnf20 (on the protein array) (UniProt Q5DTM8); assay: peptide or protein array
[2] = molecular target: Rnf20 (in cardiac progenitors) (UniProt Q5DTM8); assay: co-IP

binding (GST-Rnf20 fusion protein): binds
binding [1]: binds
B1: recombinant Isl1 protein (protein, UniProt P61372 1-349)
chain: MGDMGDPPKKKRLISLCVGCGNQIHDQYILRVSPDLEWHAACLKCAECNQYLDESCTCFVRDGKTYCKRDYIRLYGIKCAKCSIGFSKNDFVMRARSKVYHIECFRCVACSRQLIPGDEFALREDGLFCRADHDVVERASLGAGDPLSPLHPARPLQMAAEPISARQPALRPHVHKQPEKTTRVRTVLNEKQLHTLRTCYAANPRPDALMKEQLVEMTGLSPRVIRVWFQNKRCKDKKRSIMMKQLQQQQPNDKTNIQGMTGTPMVAASPERHDGGLQANPVEVQSYQPPWKVLSDFALQSDIDQPAFQQLVNFSEGGPGSNSTGSEVASMSSQLPDTPNSMVASPIEA

binding [2]: binds
B2: Isl1 (in cardiac progenitors) (protein, UniProt P61372 1-349)
chain: B1 chain
